# Experimental data from US12180304B2 (Zhejiang University, priority 2020, dated 2024).
# Some of these results come from one statement about several compounds together.
# Molecular target: T1, intact recombinant antibody against clothianidin and dinotefuran (Mus musculus, UniProt P01837+P01868)
# T1 construct: The heavy and light chain variable region genes were ligated to linearized expression vectors pCDNA3.4-Mouse-IgG1 and pCDNA3.4-Mouse-Kappa; mouse IgG1 heavy chain constant region (fusion partner); mouse kappa light chain constant region (fusion partner); made in house; host or cells: HEK293F cells, double-plasmid transfection, Protein A purification
# Experiment: heterologous indirect competitive ELISA (thiacloprid-OVA coating antigen)
# Assay type: binding
# Method: In the early stage of preparation of parental ascitic monoclonal antibodies, a difference in sensitivity was compared between the homologous indirect competitive ELISA (coating antigen was clothianidin-OVA) and the heterologous indirect ELISA (coating antigens were thiacloprid-OVA and imidaclothiz-OVA).
# In the present disclosure, the specificity of the antibody was evaluated by detecting the cross-reactivity with eight common neonicotinoid insecticides.
structure (smiles),measurement,value
O=[N+]([O-])NC1=NCCN1Cc1ccc(Cl)nc1 [imidacloprid],cross-reactivity,< 0.5%
